Source: PubChem BioAssay AID248 (DTP/NCI, 2004)
The list is a part of this screen's results and no random one: it is rich in T/C values a quarter to a half above the control, in often repeated tests (any T/C) and in doses without a T/C. Other doses and runs of a compound stand elsewhere. T/C: endpoint of the treated group in % of that of the vehicle group. Some doses have a count of surviving animals in place of a T/C: the source files T/C as zero there, which appears to mark a toxic dose or a test without result, not a measured value. Some doses without a T/C left all or most animals alive at the check, yet need not have been tolerated: the source hardly ever lists a survival T/C far under the control, and the zero likely stands for such cases as well. Survivors were counted at the toxicity check, usually on the fifth day, unless a day is given; later deaths do not show. Schedule codes are those of the source, taken here to give the interval after Q, in days (D) or hours (H), and the number of doses after X. Some schedule codes hold Z or #, which are not explained here. For survival time, the PubChem record calls one and a half times the control and up active, and a quarter to a half above the control has no call in these data; cut-offs in other NCI protocols can differ. Some doses were run more than once; the values are given in rising order. Some T/C values carry the count of animals alive at the toxicity check (mostly the fifth day); without a count, all were alive then.

Test system: L1210 leukemia ip in BDF1 mice, survival T/C
Test: NCI In Vivo Anticancer Drug Screen. Data for tumor model L1210 Leukemia (intraperitoneal) in B6D2F1 (BDF1) mice
Conditions: T/C endpoint: mean survival time, higher T/C = longer survival
[1] = dose: 400.0 mg/kg/injection, schedule: Q01DX001 (ip), vehicle: saline
[2] = dose: 150.0 mg/kg/injection, schedule: Q01DX001 (ip), vehicle: saline
[3] = dose: 300.0 mg/kg/injection, schedule: Q01DX001 (ip), vehicle: saline

CC(=O)Nc1cc(N(CCOS(C)(=O)=O)CCOS(C)(=O)=O)ccc1N=O
T/C (dose: 0.4 mg/kg/injection, schedule: Q01DX015 (ip), vehicle: saline): 130 % of control | T/C (dose: 0.6 mg/kg/injection, schedule: Q01DX015 (ip), vehicle: saline): 125 % of control | T/C (dose: 2.2 mg/kg/injection, schedule: Q01DX001 (ip), vehicle: saline): 129 % of control | T/C (dose: 3.3 mg/kg/injection, schedule: Q01DX001 (ip), vehicle: saline): 131 % of control | T/C (dose: 5.0 mg/kg/injection, schedule: Q01DX001 (ip), vehicle: saline): 126 and 128 % of control | survivor count (dose: 20.0 mg/kg/injection, schedule: Q01DX001 (ip), vehicle: saline): 2 of 4 | survivor count (dose: 40.0 mg/kg/injection, schedule: Q01DX001 (ip), vehicle: saline): 1 of 4 | survivor count (dose: 50.0 mg/kg/injection, schedule: Q01DX001 (ip), vehicle: saline): 0 of 4 | survivor count (dose: 80.0 mg/kg/injection, schedule: Q01DX001 (ip), vehicle: saline): 0 of 4 | survivor count (dose: 100.0 mg/kg/injection, schedule: Q01DX001 (ip), vehicle: saline): 0 of 4 | survivor count (dose: 200.0 mg/kg/injection, schedule: Q01DX001 (ip), vehicle: saline): 0 of 4 | survivor count [1]: 0 of 4

CC(Cc1ccc(O)c(O)c1)C(C)Cc1ccc(O)c(O)c1 (configuration not stated)
survivor count (dose: 600.0 mg/kg/injection, schedule: Q01DX009 (ip), vehicle: saline): 3 of 6 | survivor count (dose: 800.0 mg/kg/injection, schedule: Q01DX009 (ip), vehicle: saline): 4 of 6

NC(CCl)=NCC12CC3CC(CC(C3)C1)C2
survivor count (dose: 100.0 mg/kg/injection, schedule: Q04DX002 (ip), vehicle: Klucel (hydroxypropylcellulose) (HPC)): 1 of 3 | survivor count (dose: 400.0 mg/kg/injection, schedule: Q04DX002 (ip), vehicle: Klucel (hydroxypropylcellulose) (HPC)): 0 of 3

CCC(C)(NC(N)=O)c1ccccc1 (configuration not stated)
survivor count [1]: 0 of 6

CCCS/C(N)=N/N=C/c1ccc([N+](=O)[O-])o1
survivor count (dose: 200.0 mg/kg/injection, schedule: Q01DX001 (ip), vehicle: other): 2 of 4 | survivor count (dose: 400.0 mg/kg/injection, schedule: Q01DX001 (ip), vehicle: other): 0 of 4

C[n+]1ccc(/C=C\c2ccc3c(c2)OCO3)cc1
survivor count [2]: 3 of 6 | survivor count [3]: 3 of 6

CCOC(=O)c1ccc(N(CCOS(C)(=O)=O)CCOS(C)(=O)=O)cc1
T/C (dose: 25.0 mg/kg/injection, schedule: Q01DX015 (ip), vehicle: saline): 132 % of control [5 of 6 alive] | T/C (dose: 50.0 mg/kg/injection, schedule: Q01DX015 (ip), vehicle: saline): 125 % of control [4 of 6 alive] | T/C [2]: 125 % of control | survivor count (dose: 200.0 mg/kg/injection, schedule: Q01DX015 (ip), vehicle: saline): 1 of 6 | T/C (dose: 800.0 mg/kg/injection, schedule: Q01DX001 (ip), vehicle: saline): 142 % of control

Nc1cc(=S)c2[nH]cnc2[nH]1
survivor count (dose: 200.0 mg/kg/injection, schedule: Q01DX001 (ip), vehicle: Klucel (hydroxypropylcellulose) (HPC)): 6 of 6

CCCCCCCCCCCC(c1ccccc1)[N+](C)(C)Cc1ccccc1 (configuration not stated)
survivor count (dose: 4.0 mg/kg/injection, schedule: Q01DX015 (ip), vehicle: saline): 2 of 6 | survivor count (dose: 5.0 mg/kg/injection, schedule: Q01DX001 (ip), vehicle: carboxymethylcellulose (CMC)): 0 of 4 | survivor count (dose: 6.0 mg/kg/injection, schedule: Q01DX015 (ip), vehicle: saline): 0 of 6 | survivor count (dose: 10.0 mg/kg/injection, schedule: Q01DX001 (ip), vehicle: carboxymethylcellulose (CMC)): 1 of 4 | survivor count (dose: 20.0 mg/kg/injection, schedule: Q01DX001 (ip), vehicle: carboxymethylcellulose (CMC)): 0 of 4

CC(C)C(C#N)(CCN1CCCCC1)c1cccc2ccccc12 (configuration not stated)
survivor count (dose: 200.0 mg/kg/injection, schedule: Q01DX009 (ip), vehicle: Klucel (hydroxypropylcellulose) (HPC)): 3 of 6 | survivor count (dose: 400.0 mg/kg/injection, schedule: Q01DX009 (ip), vehicle: Klucel (hydroxypropylcellulose) (HPC)): 0 of 6

c1ccc([P+](Cc2cccc3c2Cc2ccccc2-3)(c2ccccc2)c2ccccc2)cc1
survivor count (dose: 30.0 mg/kg/injection, schedule: Q01DX001 (ip), vehicle: carboxymethylcellulose (CMC)): 3 of 6 | survivor count (dose: 60.0 mg/kg/injection, schedule: Q01DX001 (ip), vehicle: carboxymethylcellulose (CMC)): 1 of 6 | survivor count (dose: 75.0 mg/kg/injection, schedule: Q01DX001 (ip), vehicle: carboxymethylcellulose (CMC)): 0 of 6 | survivor count (dose: 150.0 mg/kg/injection, schedule: Q01DX001 (ip), vehicle: carboxymethylcellulose (CMC)): 1 of 6 | survivor count (dose: 300.0 mg/kg/injection, schedule: Q01DX001 (ip), vehicle: carboxymethylcellulose (CMC)): 0 of 6

O=C(O)c1ccccc1NC(c1ccccc1)c1ccc2cccnc2c1O (configuration not stated)
survivor count [1]: 2 of 4

Nc1ccc(C(=O)O)c(O)c1.Nc1ccc(C(=O)O)c(O)c1.[Na+].[O]=[V]
survivor count (dose: 64.0 mg/kg/injection, schedule: Q01DX015 (ip), vehicle: carboxymethylcellulose (CMC)): 0 of 6

CCCCCCCCCCCCCCCCOc1ccc(S(=O)(=O)c2ccccc2)cc1[N+](=O)[O-]
survivor count (dose: 100.0 mg/kg/injection, schedule: Q01DX009 (ip), vehicle: saline sonified): 6 of 6 | survivor count (dose: 200.0 mg/kg/injection, schedule: Q01DX009 (ip), vehicle: saline sonified): 6 of 6

O=C(NCCCNC(=O)Nc1ccc(C2=NCCN2)cc1)Nc1ccc(C2=NCCN2)cc1
T/C (dose: 2.0 mg/kg/injection, schedule: Q01DX Z (ip), vehicle: carboxymethylcellulose (CMC)): 129 % of control | T/C (dose: 4.0 mg/kg/injection, schedule: Q01DX Z (ip), vehicle: carboxymethylcellulose (CMC)): 136 % of control | T/C (dose: 8.0 mg/kg/injection, schedule: Q01DX Z (ip), vehicle: carboxymethylcellulose (CMC)): 146 % of control | T/C (dose: 31.0 mg/kg/injection, schedule: Q01DX Z (ip), vehicle: water): 144 % of control | survivor count (dose: 125.0 mg/kg/injection, schedule: Q01DX Z (ip), vehicle: water): 2 of 6 | survivor count (dose: 250.0 mg/kg/injection, schedule: Q01DX Z (ip), vehicle: water): 0 of 6 | survivor count (dose: 500.0 mg/kg/injection, schedule: Q01DX Z (ip), vehicle: water): 0 of 6

CC(=O)OC(OC(C)=O)c1ccc([N+](=O)[O-])c([N+](=O)[O-])c1
survivor count (dose: 100.0 mg/kg/injection, schedule: Q01DX001 (ip), vehicle: carboxymethylcellulose (CMC)): 0 of 6 | survivor count (dose: 200.0 mg/kg/injection, schedule: Q01DX001 (ip), vehicle: carboxymethylcellulose (CMC)): 0 of 6 | survivor count (dose: 400.0 mg/kg/injection, schedule: Q01DX001 (ip), vehicle: carboxymethylcellulose (CMC)): 0 of 6

CC(C)CCNc1ncnc2nc[nH]c12
survivor count [3]: 3 of 6

COc1ccc(C(=O)c2cccs2)cc1
survivor count (dose: 400.0 mg/kg/injection, schedule: Q04DX003 (ip), vehicle: Klucel (hydroxypropylcellulose) (HPC)): 6 of 6

CSc1cc(C)c(OC(=O)Nc2c(C)cccc2C)c(CO)c1
survivor count (dose: 400.0 mg/kg/injection, schedule: Q04DX003 (ip), vehicle: saline with Tween-80): 5 of 6

CN1CCC=C(C(=O)N(c2ccccc2)c2ccccc2)C1
survivor count (dose: 400.0 mg/kg/injection, schedule: Q04DX003 (ip), vehicle: saline): 2 of 6
